Tested on: BAF complex subunits and histone proteins
Assay: Mass spectrometry proteomics of purified HA-SS18 WT and HA-SS18-SSX1 complexes (Tables 5A-5E)
Parameters: species or system human
Conditions: for Total / Unique: HA-SS18SSX1_CHR_peptides; for Total: total peptides of the identified protein; for Unique: unique peptides of the identified protein
[1] = HA-SS18SSX1_NE_peptides: protein co-purified with HA-SS18-SSX1 BAF complexes from soluble nuclear extract (NE), HEK-293T cells
[2] = HA-SS18WT_NE_peptides: HA-SS18 WT complexes purified from nuclear extract (NE), HEK-293T, label = protein identified (Gene Symbol)
[3] = HA-SS18WT_NE_peptides: proteins co-purified with HA-SS18 WT from nuclear extract (NE), HEK-293T
[4] = HA-SS18SSX1 purification, NE (soluble nuclear extract) fraction, HEK-293T, peptides per identified protein
[5] = HA-SS18SSX1_CHR_peptides: protein identified in the HA-SS18-SSX1 purification from solubilized chromatin (CHR), HEK-293T
[6] = HA-SS18WT_CHR_peptides: HA-SS18 WT purification from nuclease-treated solubilized chromatin (CHR), HEK-293T, label = protein identified
[7] = HA-SS18SSX1_NE_peptides (Table 5B), HA-SS18-SSX1 BAF complex purification from soluble nuclear extract, HEK-293T
[8] = HA-SS18WT_CHR_peptides: protein identified in HA-SS18 WT BAF complex purification from nuclease-treated solubilized chromatin (CHR), HEK-293T
[9] = HA-SS18SSX1_CHR_peptides: proteins found in HA-SS18-SSX1 BAF complex purification from solubilized chromatin (CHR), HEK-293T

ABCC1
Total (peptides) [1]: 2
Unique (peptides) [1]: 2
Total (peptides) [2]: 3
Unique (peptides) [2]: 3

ADCY6
Total (peptides) [3]: 1
Unique (peptides) [3]: 1

AFG3L2
Total (total peptides) [4]: 13
Unique (unique peptides) [4]: 13
Total (peptides) [2]: 11
Unique (peptides) [2]: 11

AHCTF1
Total (total peptides) [5]: 45
Unique (unique peptides) [5]: 42
Total (total peptides) [4]: 4
Unique (unique peptides) [4]: 4
Total (peptides) [6]: 25
Unique (peptides) [6]: 24
Total (peptides) [3]: 2
Unique (peptides) [3]: 2

AIFM1
Total: 3
Unique: 3
Total (total peptides) [4]: 23
Unique (unique peptides) [4]: 15
Total (peptides) [2]: 23
Unique (peptides) [2]: 17

AKAP8
Total (peptides) [7]: 1
Unique (peptides) [7]: 1

ALDH3A2
Total (total peptides) [4]: 3
Unique (unique peptides) [4]: 3
Total (peptides) [3]: 2
Unique (peptides) [3]: 2

ANXA2
Total: 1
Unique: 1
Total (total peptides) [8]: 1
Unique (unique peptides) [8]: 1

APP
Total (peptides) [1]: 1
Unique (peptides) [1]: 1

ARID2
Total: 2
Unique: 2
Total (peptides) [1]: 2
Unique (peptides) [1]: 2
Total (peptides) [6]: 4
Unique (peptides) [6]: 4
Total (peptides) [2]: 5
Unique (peptides) [2]: 5

ARL13B
Total (peptides) [1]: 1
Unique (peptides) [1]: 1

ATAD1
Total (peptides) [7]: 1
Unique (peptides) [7]: 1

ATP5B
Total: 2
Unique: 2
Total (total peptides) [4]: 25
Unique (unique peptides) [4]: 22
Total (peptides) [6]: 4
Unique (peptides) [6]: 4
Total (peptides) [2]: 33
Unique (peptides) [2]: 28

ATRX
Total (total peptides) [5]: 23
Unique (unique peptides) [5]: 20
Total: 2
Unique: 2
Total (peptides) [6]: 5
Unique (peptides) [6]: 5

AURKB
Total (total peptides) [5]: 5
Unique (unique peptides) [5]: 5
Total (total peptides) [8]: 2
Unique (unique peptides) [8]: 2

BAZ1A
Total (total peptides) [5]: 7
Unique (unique peptides) [5]: 7

BAZ2A
Total (total peptides) [5]: 14
Unique (unique peptides) [5]: 14
Total (peptides) [6]: 5
Unique (peptides) [6]: 5

BCL7C: BAF complex subunit quantified in the IP MS
Total (total peptides) [5]: 29
Unique (unique peptides) [5]: 11
Total (total peptides) [4]: 14
Unique (unique peptides) [4]: 7
Total (peptides) [6]: 9
Unique (peptides) [6]: 5
Total (peptides) [2]: 33
Unique (peptides) [2]: 11

BCLAF1
Total (total peptides) [5]: 78
Unique (unique peptides) [5]: 34
Total (peptides) [6]: 31
Unique (peptides) [6]: 21

BCORL1
Total (peptides) [9]: 1
Unique (peptides) [9]: 1
Total (total peptides) [8]: 1
Unique (unique peptides) [8]: 1

BICRA
Total (total peptides) [5]: 25
Unique (unique peptides) [5]: 23
Total (total peptides) [4]: 89
Unique (unique peptides) [4]: 34
Total (peptides) [6]: 11
Unique (peptides) [6]: 10
Total (peptides) [2]: 158
Unique (peptides) [2]: 45

BMS1
Total (total peptides) [5]: 20
Unique (unique peptides) [5]: 19
Total (peptides) [6]: 6
Unique (peptides) [6]: 6

BOP1
Total (total peptides) [5]: 5
Unique (unique peptides) [5]: 5
Total (peptides) [6]: 5
Unique (peptides) [6]: 5

BRD2
Total (total peptides) [5]: 23
Unique (unique peptides) [5]: 17
Total (peptides) [6]: 5
Unique (peptides) [6]: 5

BRD3
Total: 4
Unique: 4
Total (total peptides) [8]: 2
Unique (unique peptides) [8]: 2

BTAF1
Total (peptides) [3]: 1
Unique (peptides) [3]: 1

C11orf98
Total (peptides) [9]: 1
Unique (peptides) [9]: 1
Total (total peptides) [8]: 1
Unique (unique peptides) [8]: 1

CBX1
Total (total peptides) [5]: 5
Unique (unique peptides) [5]: 5
Total (total peptides) [8]: 2
Unique (unique peptides) [8]: 2

CBX3
Total (total peptides) [5]: 7
Unique (unique peptides) [5]: 6
Total (peptides) [6]: 3
Unique (peptides) [6]: 3

CBX5
Total (total peptides) [5]: 29
Unique (unique peptides) [5]: 9

CCT3
Total (peptides) [3]: 1
Unique (peptides) [3]: 1

CDCA8
Total (total peptides) [5]: 5
Unique (unique peptides) [5]: 5
Total (peptides) [6]: 3
Unique (peptides) [6]: 3

CDKAL1
Total (peptides) [1]: 2
Unique (peptides) [1]: 2

CHD1
Total (total peptides) [5]: 19
Unique (unique peptides) [5]: 18
Total (peptides) [6]: 9
Unique (peptides) [6]: 9

CHD2
Total (total peptides) [5]: 7
Unique (unique peptides) [5]: 7
Total (total peptides) [8]: 1
Unique (unique peptides) [8]: 1

CHD3
Total (total peptides) [5]: 11
Unique (unique peptides) [5]: 10
Total (peptides) [6]: 7
Unique (peptides) [6]: 7

CHD4
Total (total peptides) [5]: 73
Unique (unique peptides) [5]: 57
Total (peptides) [6]: 33
Unique (peptides) [6]: 31

CHD5
Total (total peptides) [5]: 7
Unique (unique peptides) [5]: 5
Total (peptides) [6]: 3
Unique (peptides) [6]: 3

CKAP5 [listing 1 of 2 here]
Total (peptides) [1]: 1
Unique (peptides) [1]: 1

CKAP5 [listing 2 of 2 here]
Total (peptides) [3]: 1
Unique (peptides) [3]: 1

CKB
Total (total peptides) [8]: 1
Unique (unique peptides) [8]: 1

CLK1
Total: 1
Unique: 1
Total (total peptides) [8]: 1
Unique (unique peptides) [8]: 1

CLPX
Total (total peptides) [4]: 4
Unique (unique peptides) [4]: 4
Total (peptides) [2]: 3
Unique (peptides) [2]: 3

COIL
Total: 3
Unique: 3
Total (total peptides) [4]: 6
Unique (unique peptides) [4]: 6
Total (peptides) [6]: 3
Unique (peptides) [6]: 3
Total (peptides) [2]: 3
Unique (peptides) [2]: 3

COPE
Total (peptides) [3]: 1
Unique (peptides) [3]: 1

COQ8A
Total (total peptides) [4]: 3
Unique (unique peptides) [4]: 3
Total (peptides) [2]: 8
Unique (peptides) [2]: 8

CPSF4
Total (peptides) [1]: 2
Unique (peptides) [1]: 2

CTPS1
Total (peptides) [3]: 1
Unique (peptides) [3]: 1

CUL4B
Total (total peptides) [5]: 14
Unique (unique peptides) [5]: 13
Total (peptides) [6]: 5
Unique (peptides) [6]: 5

CUL9
Total (total peptides) [8]: 1
Unique (unique peptides) [8]: 1

DDX10
Total: 3
Unique: 3
Total (total peptides) [8]: 1
Unique (unique peptides) [8]: 1

DDX21
Total (total peptides) [5]: 10
Unique (unique peptides) [5]: 9
Total (total peptides) [4]: 4
Unique (unique peptides) [4]: 4
Total (peptides) [6]: 9
Unique (peptides) [6]: 9
Total (peptides) [3]: 2
Unique (peptides) [3]: 2

DDX39A
Total: 2
Unique: 2
Total (peptides) [1]: 1
Unique (peptides) [1]: 1
Total (total peptides) [8]: 1
Unique (unique peptides) [8]: 1

DDX41
Total: 2
Unique: 2
Total (total peptides) [4]: 15
Unique (unique peptides) [4]: 13
Total (peptides) [6]: 9
Unique (peptides) [6]: 9
Total (peptides) [2]: 8
Unique (peptides) [2]: 8

DDX52
Total (total peptides) [5]: 10
Unique (unique peptides) [5]: 9
Total (total peptides) [4]: 6
Unique (unique peptides) [4]: 6
Total (peptides) [6]: 10
Unique (peptides) [6]: 8
Total (peptides) [2]: 7
Unique (peptides) [2]: 7

DDX54
Total (total peptides) [5]: 11
Unique (unique peptides) [5]: 11
Total (peptides) [6]: 8
Unique (peptides) [6]: 8
Total (peptides) [3]: 2
Unique (peptides) [3]: 2

DECR1
Total (peptides) [1]: 1
Unique (peptides) [1]: 1

DEPDC1B
Total (peptides) [3]: 1
Unique (peptides) [3]: 1

DES
Total: 3
Unique: 2
Total (total peptides) [8]: 2
Unique (unique peptides) [8]: 2

DHX33
Total: 2
Unique: 2
Total (total peptides) [8]: 1
Unique (unique peptides) [8]: 1

DIDO1
Total: 1
Unique: 1

DMBT1
Total (total peptides) [8]: 1
Unique (unique peptides) [8]: 1

DNAJA1
Total (peptides) [1]: 2
Unique (peptides) [1]: 2
Total (peptides) [2]: 3
Unique (peptides) [2]: 3

DNAJA2
Total (peptides) [1]: 1
Unique (peptides) [1]: 1
Total (peptides) [3]: 1
Unique (peptides) [3]: 1

DNAJB6
Total (peptides) [9]: 1
Unique (peptides) [9]: 1

DNAJC19
Total (peptides) [1]: 1
Unique (peptides) [1]: 1

DNM2
Total (total peptides) [4]: 8
Unique (unique peptides) [4]: 8
Total (peptides) [2]: 6
Unique (peptides) [2]: 5

EED
Total: 2
Unique: 2
Total (total peptides) [8]: 1
Unique (unique peptides) [8]: 1

EEF1G
Total (total peptides) [4]: 4
Unique (unique peptides) [4]: 4
Total (peptides) [2]: 6
Unique (peptides) [2]: 6

— US20250283871A1, “COMPOSITIONS AND METHODS FOR MODULATING THE INTERACTION BETWEEN SS18-SSX FUSION ONCOPROTEIN AND NUCLEOSOMES” (Dana-Farber Cancer Institute, Inc., priority 2020, published 2025)
